According to paper doi:10.1101/2024.09.30.615753:
These are yes or no findings as the source states them, for the method shown. For part of these data: Binding seen in cells or lysates may run through a third protein. Some binding calls cover weakened binding; strength is not graded here. Sequences can lack the tags named with a protein. Blank lines part the entries; values can stand above or below the binder they belong to.

Columns and labels:
[1] = target: T1, PRESSED FLOWER (PRS) fused to the pGBKT7 binding domain (PRS-BD) (Arabidopsis thaliana) (UniProt Q9SIB4); experiment: two-hybrid
T1 sequence: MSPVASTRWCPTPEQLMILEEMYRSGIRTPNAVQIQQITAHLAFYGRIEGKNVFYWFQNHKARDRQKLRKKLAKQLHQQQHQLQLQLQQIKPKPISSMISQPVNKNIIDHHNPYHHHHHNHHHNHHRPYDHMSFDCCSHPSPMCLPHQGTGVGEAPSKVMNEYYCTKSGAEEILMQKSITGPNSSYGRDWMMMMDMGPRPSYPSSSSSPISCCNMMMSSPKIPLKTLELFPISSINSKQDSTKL

[2] = target: T2, PRS-cLUC (Arabidopsis thaliana) (UniProt Q9SIB4); experiment: split reporter
T2 sequence: T1 sequence

[3] = target: T3, PRS-cYFP (Arabidopsis thaliana) (UniProt Q9SIB4); experiment: split reporter
T3 sequence: T1 sequence

binding [1]: binds
B1: … LEAVES 2 (AS2) fused to the pGADT7 activation domain (AS2-AD) (protein, UniProt O04479 1-199)
chain: MASSSTNSPCAACKFLRRKCQPECVFAPYFPPDQPQKFANVHKVFGASNVTKLLNELHPSQREDAVNSLAYEADMRLRDPVYGCVGVISLLQHQLRQLQIDLSCAKSELSKYQSLGILAATHQSLGINLLAGAADGTATAVRDHYHHHQFFPREQMFGGLDVPAGNNYDGGILAIGQITQFQQPRAAAGDDGRRTVDPS

binding [2]: binds
B2: AS2-nLUC (protein, UniProt O04479 1-199)
chain: B1 chain

binding [3]: binds
B3: nYFP-AS2 (protein, UniProt O04479 1-199)
chain: B1 chain
